Literature values as cited in patent US20040033257A1, “Pharmaceutical formulation in a drug delivery system and process for preparing the same” (Strides Inc., priority 2002, published 2004).

Test system: histamine skin wheal
Settings: human; single and repeated doses

In the case of `CCOC(=O)N1CCC(=C2c3ccc(Cl)cc3CCc3cccnc32)CC1` [Loratadine, ethyl 4-(8-chloro-5,6-dihydro-11-H-benzo[5,6]cyclohepta[1,2-b]pyridin-11-ylidine)-1-piperadine carboxylate], the “antihistamine effect beginning (onset)” value is listed as 1 to 3 h.
